Reference: PubChem BioAssay AID1224830 (NIAID, 2016)

Aim: 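Host factors that control LPS-induced TNF expression in human macrophages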 (primary screen)
Cells: human THP-1 monocytic leukaemia cells, TNF dual-luciferase reporter clone, PMA-differentiated to macrophage-like cells
Reagents: siRNA pool against human genes, 50 nM
Duration: LPS for 4 h, given about 3 days after siRNA transfection
Challenge: bacterial LPS (TLR4 ligand), 10 ng/ml
Detection: 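TNF firefly reporter luminescence divided by renilla, normalised to the plate median, then turned into a robust z-score for each replicate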
Scale: TNF reporter robust z-score: higher = stronger TNF reporter response to LPS
Hit rule: 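a well is active when its z-score exceeds 2.8 or falls below -1.5; control wells carry no call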
The deposit covers about 18,000 reagents; this is a part drawn at random. Of all reagents, about 2,900 (16%) were called active. 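Calls are made per well; low scores hint the gene aids the LPS response, high scores that it dampens it.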 Repeated entries: four replicate wells of each siRNA pool.

{"gene":"COL14A1","TNF reporter robust z-score":-1.08,"outcome":"inactive"}
{"gene":"COL14A1","TNF reporter robust z-score":0.63,"outcome":"inactive"}
{"gene":"COL14A1","TNF reporter robust z-score":-1.02,"outcome":"inactive"}
{"gene":"COL14A1","TNF reporter robust z-score":1.45,"outcome":"inactive"}
{"gene":"DAAM2","TNF reporter robust z-score":-0.98,"outcome":"inactive"}
{"gene":"DAAM2","TNF reporter robust z-score":0.07,"outcome":"inactive"}
{"gene":"DAAM2","TNF reporter robust z-score":1.72,"outcome":"inactive"}
{"gene":"DAAM2","TNF reporter robust z-score":1.18,"outcome":"inactive"}
{"gene":"ACSF2","TNF reporter robust z-score":-0.07,"outcome":"inactive"}
{"gene":"ACSF2","TNF reporter robust z-score":0.56,"outcome":"inactive"}
{"gene":"ACSF2","TNF reporter robust z-score":-0.13,"outcome":"inactive"}
{"gene":"THOC3","TNF reporter robust z-score":-0.28,"outcome":"inactive"}
{"gene":"THOC3","TNF reporter robust z-score":-0.36,"outcome":"inactive"}
{"gene":"THOC3","TNF reporter robust z-score":-0.6,"outcome":"inactive"}
{"gene":"THOC3","TNF reporter robust z-score":-0.07,"outcome":"inactive"}
{"gene":"DUS1L","TNF reporter robust z-score":2.13,"outcome":"inactive"}
{"gene":"DUS1L","TNF reporter robust z-score":-0.19,"outcome":"inactive"}
{"gene":"DUS1L","TNF reporter robust z-score":1,"outcome":"inactive"}
{"gene":"DUS1L","TNF reporter robust z-score":0.19,"outcome":"inactive"}
{"gene":"TRIP4","TNF reporter robust z-score":-0.56,"outcome":"inactive"}
{"gene":"TRIP4","TNF reporter robust z-score":-0.76,"outcome":"inactive"}
{"gene":"TRIP4","TNF reporter robust z-score":-0.19,"outcome":"inactive"}
{"gene":"TRIP4","TNF reporter robust z-score":-0.05,"outcome":"inactive"}
{"gene":"TMCC3","TNF reporter robust z-score":0.69,"outcome":"inactive"}
{"gene":"TMCC3","TNF reporter robust z-score":-0.3,"outcome":"inactive"}
{"gene":"TMCC3","TNF reporter robust z-score":0.51,"outcome":"inactive"}
{"gene":"TMCC3","TNF reporter robust z-score":0.95,"outcome":"inactive"}
{"gene":"OSMR","TNF reporter robust z-score":2.35,"outcome":"inactive"}
{"gene":"OSMR","TNF reporter robust z-score":2.83,"outcome":"active"}
{"gene":"OSMR","TNF reporter robust z-score":2.42,"outcome":"inactive"}
{"gene":"OSMR","TNF reporter robust z-score":2.81,"outcome":"active"}

Active calls, among the entries above:
{"gene":"OSMR","TNF reporter robust z-score":2.83,"outcome":"active"}
{"gene":"OSMR","TNF reporter robust z-score":2.81,"outcome":"active"}

Continued.
{"gene":"SOX13","TNF reporter robust z-score":-1.9,"outcome":"active"}
{"gene":"SOX13","TNF reporter robust z-score":-2.03,"outcome":"active"}
{"gene":"SOX13","TNF reporter robust z-score":-1.89,"outcome":"active"}
{"gene":"RCAN3","TNF reporter robust z-score":0.06,"outcome":"inactive"}
{"gene":"RCAN3","TNF reporter robust z-score":1,"outcome":"inactive"}
{"gene":"RCAN3","TNF reporter robust z-score":-0.18,"outcome":"inactive"}
{"gene":"RCAN3","TNF reporter robust z-score":0.39,"outcome":"inactive"}
{"gene":"KRT75","TNF reporter robust z-score":-0.45,"outcome":"inactive"}
{"gene":"KRT75","TNF reporter robust z-score":0.09,"outcome":"inactive"}
{"gene":"KRT75","TNF reporter robust z-score":0.01,"outcome":"inactive"}
{"gene":"KRT75","TNF reporter robust z-score":-0.05,"outcome":"inactive"}
{"gene":"KRTAP8-1","TNF reporter robust z-score":0.69,"outcome":"inactive"}
{"gene":"KRTAP8-1","TNF reporter robust z-score":1.06,"outcome":"inactive"}
{"gene":"KRTAP8-1","TNF reporter robust z-score":-0.85,"outcome":"inactive"}
{"gene":"KRTAP8-1","TNF reporter robust z-score":-0.79,"outcome":"inactive"}
{"gene":"ZNF429","TNF reporter robust z-score":-0.07,"outcome":"inactive"}
{"gene":"ZNF429","TNF reporter robust z-score":1.25,"outcome":"inactive"}
{"gene":"ZNF429","TNF reporter robust z-score":-0.96,"outcome":"inactive"}
{"gene":"ZNF429","TNF reporter robust z-score":-1.19,"outcome":"inactive"}
